# Experimental data reported in PubChem BioAssay AID758 (NMMLSC, 2007).
# Out of some 190,000 compounds screened, about 110 (0.058%) were called active. The inconclusive results got no clear call from the source; some entries with a clear call stand among them for comparison.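 How the source made its calls: active means fluorescent GTP binding to Rab7 beads changed by at least 20 points from the 100% baseline, either direction, mostly lower; inconclusive means compound itself probably fluorescent, or too few beads counted; inactive means the rest.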
# System: Rab7 GTPase wild type (dog), Bodipy-FL-GTP binding
# Experiment: modulators of GTP binding to Rab7, primary screen, biochemical, wildtype, multiplex bead flow cytometry (AID 758);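 further: median green fluorescence of bound Bodipy-FL-GTP per Rab7 bead population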
# Conditions: GST-Rab7 beads, fluorescent GTP binding, at 10 µM, actives lie on both sides, untreated = 100%, excess cold GTP = 0%
row,Compound,GTP binding activity (percent of control)
1,O=C(NCc1cc(Br)cc(Br)c1OC(=O)c1ccccc1[N+](=O)[O-])c1ccccc1,inactive: 100%
2,N#CCc1nn(-c2ccc(F)cc2)c(N)c1C#N,inconclusive: 91%
3,CCCN(c1nc(C)cc(OC)n1)S(=O)(=O)c1ccccc1,inconclusive: 93%
4,N#Cc1c(Cl)nc(SCc2ccccc2)nc1-c1ccccc1,inactive: 98%
5,Cc1nonc1OCCn1c([N+](=O)[O-])cnc1C,inactive: 98%
6,CC(C)c1cc(NCc2ccccn2)n2c(nc3ccccc32)c1C#N,inconclusive: 88%
7,O=C(Nc1ccc(Br)cc1)c1csc(-c2ccncc2)n1,inconclusive: 104%
8,CN(C)c1ccc(/C=N/NC(N)=S)cc1[N+](=O)[O-],inactive: 104%
9,CCC(CC)C1=NN2C(=N)/C(=C\c3cc(C)n(-c4cccc(C)c4)c3C)C(=O)N=C2S1,inconclusive: 87%
10,CCOC(=O)C1=NN(c2ccccc2)C(=O)/C1=C\c1ccc(N(C)C)cc1,inconclusive: 90%
11,Cc1ccc(C(=O)N/N=C/c2cc(C)n(-c3ccc(Br)cc3)c2C)cc1[N+](=O)[O-],inconclusive: 102%
12,O=C(NCCCCNC(=O)c1ccc(Cl)s1)c1ccc(Cl)s1,inconclusive: 99%
13,CN1CCc2ccccc2CC1=O,inactive: 104%
14,Fc1ccc(OCc2nn3c(Cn4nnc5ccccc54)nnc3s2)cc1,inconclusive: 92%
15,CCC(Sc1nc(-c2ccccc2)cc(=O)[nH]1)C(=O)O (stereo not given),inactive: 96%
16,COc1ccc(Cn2c(=O)[nH]c3cc(C(=O)NC4CCN(Cc5ccccc5)CC4)ccc32)cc1,inconclusive: 95%
17,CCOC(=O)c1cc(C(=O)OCC)c(=O)[nH]c1N1CCCC1,active: 24%
18,CCCCn1c(CNC(C)=O)nc2ccccc21,inconclusive: 103%
19,COc1ccc(CCNC(=O)CSc2ccsc2[N+](=O)[O-])c(OC)c1,inconclusive: 94%
20,COc1ccc(-c2csc3ncn(-c4ccc(C)cc4)c(=O)c23)cc1OC,inconclusive: 96%
21,Cc1ccc(-c2nnn(CC(=O)N(c3ccc4c(c3)OCCO4)C(C(=O)NCC3CCCO3)c3ccc(F)cc3)n2)o1 (stereo not given),inconclusive: 93%
22,CCOc1ccc(NC(=O)CC2C(=O)Nc3ccccc3N2C(=O)c2ccccc2)cc1 (stereo not given),inconclusive: 98%
23,CCOc1ccc(C(=O)N2CCN(c3cccc(C)c3C)CC2)cc1,inconclusive: 88%
24,CCN(CC)C(=O)COc1ccc(S(=O)(=O)N2CCOCC2)cc1,inconclusive: 104%
25,COc1ccc(NC(=O)Cn2c(=O)n(-c3ccc(OC)cc3OC)c(=O)c3c(C)c(C)sc32)cc1,inactive: 97%

# Part of the list above, tab-delimited.
row	Compound	GTP binding activity (percent of control)
4	N#Cc1c(Cl)nc(SCc2ccccc2)nc1-c1ccccc1	inactive: 98%
19	COc1ccc(CCNC(=O)CSc2ccsc2[N+](=O)[O-])c(OC)c1	inconclusive: 94%
